From patent publication US20090022806A1, “Nanoparticle and polymer formulations for thyroid hormone analogs, antagonists and formulations and uses thereof” (priority 2006, published 2009)

System: phosphorylated ERK1/2 in ECV304 endothelial cells
Assay: MAPK (ERK1/2) activation in ECV304 cells, nuclear pERK1/2 immunoblot
Assay type: cell-based
Conditions: PD 98059 30 μmol/L or CGP41251 100 nmol/L for 30 minutes before 10^−7 M T4
Description: ECV304 endothelial cells were cultured in M199 medium with 0.25% hormone-depleted serum 13 for 2 days. […] Nuclear fractions were pre-pared from all samples by our method reported previously, the proteins separated by polyacrylamide gel electrophoresis, and transferred to membranes for immunoblotting with antibody to phosphorylated ERK 1/2.

CO[C@@H]1[C@H](N(C)C(=O)c2ccccc2)C[C@H]2O[C@]1(C)n1c3ccccc3c3c4c(c5c6ccccc6n2c5c31)C(=O)NC4 [CGP41251]
inhibition of T4-induced ERK1/2 activation: blocked by both inhibitors
